Results deposited as PubChem BioAssay AID1259308 (NCATS, 2017)
Screen: 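Genes whose loss raises luciferase production in HEK293 cells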 (primary screen). Cell system: human HEK293 embryonic kidney cells stably expressing firefly luciferase (HEK-CMV-Luc2-Hygro). Knock-down reagent: single siRNA against human genes, 0.8 pmol siRNA per well. Time to read-out: 72 h. Detection: 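Luciferase light (ONE-Glo) measured on one replicate plate set and viability (CellTiter-Glo) on the other, scaled to a negative control siRNA, with robust z-scores and luciferase per cell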. Reading the numbers: total luciferase, z-score: higher = more reporter protein produced. Hit rule: 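An siRNA counts as active if its total luciferase robust z-score exceeds 3; genes with two or more such siRNAs out of three were retested with fresh siRNAs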. Calls: active = raised luciferase; inactive = no rise.
This is an unselected part of about 59,000 reagents tested. About 1,510 of all reagents (2.6%) count as active. 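Calls use total luciferase alone and ignore viability, so some active siRNAs may act by altering cell number.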 The numbers tell different reagents against one gene apart. Further read-outs or replicates are left out here. Reagent sequences are not shown.

| target | reagent no. | total luciferase, z-score | activity call |
| --- | --- | --- | --- |
| RAB10 | 1 | 3.79 | active |
| RAB10 | 2 | -0.641 | inactive |
| RAB10 | 3 | -2.92 | inactive |
| MAPK15 | 1 | 0.356 | inactive |
| MAPK15 | 2 | 0.624 | inactive |
| MAPK15 | 3 | 0.0198 | inactive |
| NLK | 1 | 1.23 | inactive |
| NLK | 2 | 1.05 | inactive |
| NLK | 3 | -0.603 | inactive |
| FIG4 | 1 | -1.95 | inactive |
| FIG4 | 2 | -1.05 | inactive |
| FIG4 | 3 | -0.113 | inactive |
| PROM2 | 1 | 1.16 | inactive |
| PROM2 | 2 | 2.42 | inactive |
| PROM2 | 3 | 3.77 | active |
| ZCCHC7 | 1 | -0.735 | inactive |
| ZCCHC7 | 2 | 0.173 | inactive |
| ZCCHC7 | 3 | 0.822 | inactive |
| ALPK3 | 1 | 0.76 | inactive |
| ALPK3 | 2 | -0.868 | inactive |
| ALPK3 | 3 | -0.866 | inactive |
| AFAP1L1 | 1 | -1.79 | inactive |
| AFAP1L1 | 2 | 0.000691 | inactive |
| AFAP1L1 | 3 | 2.65 | inactive |
| CD19 | 1 | 0.583 | inactive |
| CD19 | 2 | -0.236 | inactive |
| CD19 | 3 | -1.34 | inactive |
| CT47A11 | 1 | -1.7 | inactive |
| CT47A11 | 2 | 0.327 | inactive |
| CT47A11 | 3 | -0.613 | inactive |
| DTD2 | 1 | 0.0705 | inactive |
| DTD2 | 2 | 2.06 | inactive |
| DTD2 | 3 | -0.516 | inactive |
| RPL27AP2 | 1 | 0.275 | inactive |
| RPL27AP2 | 2 | -0.244 | inactive |
| RPL27AP2 | 3 | 0.537 | inactive |
| DYRK1A | 1 | -0.704 | inactive |
| DYRK1A | 2 | -0.813 | inactive |
| DYRK1A | 3 | -1.09 | inactive |
| CHCHD3 | 1 | -0.619 | inactive |
| CHCHD3 | 2 | 0.72 | inactive |
| CHCHD3 | 3 | 1.11 | inactive |
| NBPF9 | 1 | -0.0328 | inactive |
| NBPF9 | 2 | -0.193 | inactive |
| NBPF9 | 3 | 2.75 | inactive |
| KIF4A | 1 | 0.272 | inactive |
| KIF4A | 2 | 1.24 | inactive |
| KIF4A | 3 | -0.118 | inactive |
| MZF1 | 1 | 6.07 | active |
| MZF1 | 2 | 3.3 | active |
| MZF1 | 3 | -0.428 | inactive |
| RTL9 | 1 | -1.37 | inactive |
| RTL9 | 2 | -0.11 | inactive |
| RTL9 | 3 | -0.325 | inactive |
| GHSR | 1 | 0.0096 | inactive |
| GHSR | 2 | -0.347 | inactive |
| GHSR | 3 | 0.57 | inactive |

3 successive records already listed, quoted:
| target | reagent no. | total luciferase, z-score | activity call |
| --- | --- | --- | --- |
| AFAP1L1 | 3 | 2.65 | inactive |
| CD19 | 1 | 0.583 | inactive |
| CD19 | 2 | -0.236 | inactive |
